Assay [1] concerns the target stP8 (cTP8-2xStrep-HA-TurboID-PAP8) (Arabidopsis thaliana) (UniProt Q9XI19). The assay is described as follows: affinity purification with mass spectrometry.
The target of assay [2] is T1, stλP8 (cTP8-2xStrep-HA-TurboID-A10 linker-PAP8) (Arabidopsis thaliana) (UniProt Q9XI19).
T1 sequence: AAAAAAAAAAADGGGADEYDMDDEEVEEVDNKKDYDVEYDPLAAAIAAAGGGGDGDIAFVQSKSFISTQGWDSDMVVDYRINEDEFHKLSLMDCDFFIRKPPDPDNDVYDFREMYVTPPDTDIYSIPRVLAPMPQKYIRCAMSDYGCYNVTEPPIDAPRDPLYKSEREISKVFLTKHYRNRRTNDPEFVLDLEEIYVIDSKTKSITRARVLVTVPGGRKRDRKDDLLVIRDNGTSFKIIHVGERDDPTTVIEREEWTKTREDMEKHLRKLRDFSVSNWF
The assay is described as follows: proximity labelling.

Amino acid sequences for entries named in this document (tags omitted).
UniProt P56757: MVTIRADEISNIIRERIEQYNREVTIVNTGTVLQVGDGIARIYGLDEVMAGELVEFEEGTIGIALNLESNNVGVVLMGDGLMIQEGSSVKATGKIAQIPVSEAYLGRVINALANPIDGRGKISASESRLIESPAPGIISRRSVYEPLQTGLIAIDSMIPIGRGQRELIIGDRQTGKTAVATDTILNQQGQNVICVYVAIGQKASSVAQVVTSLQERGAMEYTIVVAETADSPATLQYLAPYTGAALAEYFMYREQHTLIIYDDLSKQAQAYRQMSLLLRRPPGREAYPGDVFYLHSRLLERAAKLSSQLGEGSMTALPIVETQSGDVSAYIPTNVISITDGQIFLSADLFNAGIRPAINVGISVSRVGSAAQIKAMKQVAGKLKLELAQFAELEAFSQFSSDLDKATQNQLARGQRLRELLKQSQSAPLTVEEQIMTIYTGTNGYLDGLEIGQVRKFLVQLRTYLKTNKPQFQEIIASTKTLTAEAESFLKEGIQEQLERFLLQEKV

In assay [3] the target is T1, stλP8 (cTP8-2xStrep-HA-TurboID-A10 linker-PAP8) (Arabidopsis thaliana). The assay is described as follows: affinity purification with mass spectrometry.
In assay [4] the target is stP8 (cTP8-2xStrep-HA-TurboID-PAP8) (Arabidopsis thaliana) (UniProt Q9XI19). The assay is described as follows: proximity labelling.

These are yes or no findings as the source states them, for the method shown. In cells and extracts the contact can be indirect. These calls come from enrichment with a bait or labelling near it, and not all partners need be listed. For part of these data: Sequences can lack the tags named with a protein.

Consider ATPA (from UniProt P56757 1-507), for which the binding result in assay [1] is recorded as “binds”.

“STICL (Arabidopsis thaliana (endogenous))”: the binding result in assay [2] and in assay [3] was “binds” in each case. Turning to “HTB9 (AT3G45980), histone 2B (Arabidopsis thaliana (endogenous))”, the binding entry in assay [2] and in assay [3] was “binds” each time.

B1: sigma factor SIG2 (protein, UniProt O22056 40-572)
chain: CAVSTSPALLTSMLDVAKLRLPSFDTDSDSLISDRQWTYTRPDGPSTEAKYLEALASETLLTSDEAVVVAAAAEAVALARAAVKVAKDATLFKNSNNTNLLTSSTADKRSKWDQFTEKERAGILGHLAVSDNGIVSDKITASASNKESIGDLESEKQEEVELLEEQPSVSLAVRSTRQTERKARRAKGLEKTASGIPSVKTGSSPKKKRLVAQEVDHNDPLRYLRMTTSSSKLLTVREEHELSAGIQDLLKLERLQTELTERSGRQPTFAQWASAAGVDQKSLRQRIHHGTLCKDKMIKSNIRLVISIAKNYQGAGMNLQDLVQEGCRGLVRGAEKFDATKGFKFSTYAHWWIKQAVRKSLSDQSRMIRLPFHMVEATYRVKEARKQLYSETGKHPKNEEIAEATGLSMKRLMAVLLSPKPPRSLDQKIGMNQNLKPSEVIADPEAVTSEDILIKEFMRQDLDKVLDSLGTREKQVIRWRFGMEDGRMKTLQEIGEMMGVSRERVRQIESSAFRKLKNKKRNNHLQQYLVAQS
In the case of B1, the binding entry in assay [1] is recorded as “binds”.

B2: ATPF (protein, UniProt P56759 1-184)
chain: MKNLTDSFVYLGHWPSAGSFGFNTDILATNPINLSVVFGVLIFFGKGVLNDLLDNRKQRILNTIRNSEELREGAIQQLENARARLRNVETEADKFRVNGYSEIEREKLNLINSTYKTLKQLENYKNETILFEQQRTINQVRERVFQQALQGAIGTLNSCLSNELHLRTINANIGMFGTMKEITD
On to B2, for which the binding entry in assay [1] was “binds”.

B3: TIG (trigger factor) (protein, UniProt Q8S9L5 78-547)
chain: AASPAVETSVKEDKLPADLKVTETVQANSSVKLSVEVPEIVCEDCYQRVLTEFMKLSKVPGFRPKTRVPENIIVGFVGRQYVLRATVESILKRTLPHAMESVTGRALKDSIQIVSSFPDMEKAYSKLKTLSYEVVVDVVPELKWNPEDGYKNMKVVVELGDEIDAKKACERQLRQKYKSLGALKIVTERGLQVGDLAVVDISATTIDEDGSTGQAIPDAESKGFHFDTEEGNRLLPGFLDAIIGIRAGESKSFTLVFPESWKQESLRGQRAQFTVDCKELFYRDLPTLDDSLADKLLPGCTTLKEVEETLAKRCQEMEQEAKEQATDNAILEQIRKMVEVEIPQSLFEEQGRQFYGARLLEIQGNMKLNEDQLASLSSQKAVNEFLETQRESITNIIKQNIAVGDIFKRENLEFSTDELVKEVENSISEFKKHKQEFDEERVKDQVQEILEGAKVLEWLKDRAEIQYITR
Take B3: the binding result in assay [4], in assay [2], in assay [1] and in assay [3] was “binds” throughout.

B4: mTERF5/MDA1 (protein, UniProt F4JVI3 44-493)
chain: LKNRVEFSPRPVPPNLIAAEKEEAKAVLTLFFKKQGLSNSLSSRLINKSDLFIDHLVSRLHSVHKARYLVGRELTTLEIRDSLIPYLEQLHEEHGDLLAELVVSFPDPPAEPRLVASSPVSVLPPRGDTDSAADTRKLRAVSRVSELDTEGALRPQTLYLLDLGLNLEQIKTITRKFAAFPYYSLDGKIKPVVEFLLDLGIPKSDIPTILCKRPQICGISLTDNLKPTMAFLETLGIDKNQWAKIISRFPAILTYSRQKLTSTVEFLSQTGLTEEQIGRILTRCPNIMSYSVEDKLRPTMEYFRSLNVDVAVLLHRCPQTFGLSIESNLKPVTEFFLEKGFGLDEIGIMISRYGALYTFSLKENVMPKWDYFQTMDYPKSELVKFPQFFGYSLQERIKPRYELVQRSGVRLLLNQVLSLSGIEFEKVVKKKMMKLVSNNVIAEQSSGGLL
For the molecule B4, in assay [2], the binding entry is “binds”.

B5: phytochrome A (endogenous) (receptor, UniProt P14712 1-1122)
chain: MSGSRPTQSSEGSRRSRHSARIIAQTTVDAKLHADFEESGSSFDYSTSVRVTGPVVENQPPRSDKVTTTYLHHIQKGKLIQPFGCLLALDEKTFKVIAYSENASELLTMASHAVPSVGEHPVLGIGTDIRSLFTAPSASALQKALGFGDVSLLNPILVHCRTSAKPFYAIIHRVTGSIIIDFEPVKPYEVPMTAAGALQSYKLAAKAITRLQSLPSGSMERLCDTMVQEVFELTGYDRVMAYKFHEDDHGEVVSEVTKPGLEPYLGLHYPATDIPQAARFLFMKNKVRMIVDCNAKHARVLQDEKLSFDLTLCGSTLRAPHSCHLQYMANMDSIASLVMAVVVNEEDGEGDAPDATTQPQKRKRLWGLVVCHNTTPRFVPFPLRYACEFLAQVFAIHVNKEVELDNQMVEKNILRTQTLLCDMLMRDAPLGIVSQSPNIMDLVKCDGAALLYKDKIWKLGTTPSEFHLQEIASWLCEYHMDSTGLSTDSLHDAGFPRALSLGDSVCGMAAVRISSKDMIFWFRSHTAGEVRWGGAKHDPDDRDDARRMHPRSSFKAFLEVVKTRSLPWKDYEMDAIHSLQLILRNAFKDSETTDVNTKVIYSKLNDLKIDGIQELEAVTSEMVRLIETATVPILAVDSDGLVNGWNTKIAELTGLSVDEAIGKHFLTLVEDSSVEIVKRMLENALEGTEEQNVQFEIKTHLSRADAGPISLVVNACASRDLHENVVGVCFVAHDLTGQKTVMDKFTRIEGDYKAIIQNPNPLIPPIFGTDEFGWCTEWNPAMSKLTGLKREEVIDKMLLGEVFGTQKSCCRLKNQEAFVNLGIVLNNAVTSQDPEKVSFAFFTRGGKYVECLLCVSKKLDREGVVTGVFCFLQLASHELQQALHVQRLAERTAVKRLKALAYIKRQIRNPLSGIMFTRKMIEGTELGPEQRRILQTSALCQKQLSKILDDSDLESIIEGCLDLEMKEFTLNEVLTASTSQVMMKSNGKSVRITNETGEEVMSDTLYGDSIRLQQVLADFMLMAVNFTPSGGQLTVSASLRKDQLGRSVHLANLEIRLTHTGAGIPEFLLNQMFGTEEDVSEEGLSLMVSRKLVKLMNGDVQYLRQAGKSSFIITAELAAANK
Consider B5, for which, in assay [1], the binding entry is reported as “binds”.

B6: sigma factor SIG6/SIGF (protein, UniProt Q9LD95 56-547)
chain: ASVLSQEPREESRPLSHALRDDRTSQLTLERRQFDELVSSREDEKFEQQLLHSTGLWNLLISPLTSETKLPAVVSPLADAELCDVVALAQKALSASKQAALLVDDTEANPSDNIKDSLSTSSSMSLPEKGNIVRSKRQLERRAKNRRAPKSNDVDDEGYVPQKTSAKKKYKQGADNDDALQLFLWGPETKQLLTAKEEAELISHIQHLLKLEKVKTKLESQNGCEPTIGEWAEAMGISSPVLKSDIHRGRSSREKLITANLRLVVHIAKQYQNRGLNFQDLLQEGSMGLMKSVEKFKPQSGCRFATYAYWWIRQSIRKSIFQNSRTIRLPENVYMLLGKVSEARKTCVQEGNYRPSKEELAGHVGVSTEKLDKLLYNTRTPLSMQQPIWSDQDTTFQEITPDSGIETPTMSVGKQLMRNHVRNLLNVLSPKERRIIKLRFGIDGGKQRSLSEIGEIYGLSKERVRQLESRALYRLKQNMNSHGLHAYADLLV
With B6, the binding entry in assay [1] is listed as “binds”.

B7: EMB1144 (protein, UniProt P57720 51-436)
chain: TGSSYGTHFRVSTFGESHGGGVGCIIDGCPPRIPLTESDLQFDLDRRRPGQSRITTPRKETDTCRISSGVSEGMTTGTPIHVFVPNTDQRGLDYSEMSVAYRPSHADATYDMKYGVRSVQGGGRSSARETIGRVAPGALAKKILKQFAGTEILAYVSQVHHVVLPEELVDHENLTLEQIENNIVRCPNPEYAEKMIAAIDAVRTKGNSVGGVVTCIVRNAPRGLGTPVFDKLEAELAKACMSLPATKGFEFGSGFAGTFLTGLEHNDEFYTDENGRIRTRTNRSGGIQGGISNGEIINMRVAFKPTSTIGRKQNTVTRDKVETEMIARGRHDPCVVPRAVPMVEAMVALVLVDQLMAQYAQCHLFPINPELQEPLQIEQPQNATAL
For B7, the binding result in assay [4], in assay [2], in assay [1] and in assay [3] was “binds” in each case.
